Reference: the supplement of paper PMC11006884
The list shows a part of the results, in another mix than the full data.

Sequences of proteins named here, by UniProt entry; tags and fusion partners are left off. A change or cut given only in a name is not applied to a line headed by its entry.
UniProt Q9H2U1: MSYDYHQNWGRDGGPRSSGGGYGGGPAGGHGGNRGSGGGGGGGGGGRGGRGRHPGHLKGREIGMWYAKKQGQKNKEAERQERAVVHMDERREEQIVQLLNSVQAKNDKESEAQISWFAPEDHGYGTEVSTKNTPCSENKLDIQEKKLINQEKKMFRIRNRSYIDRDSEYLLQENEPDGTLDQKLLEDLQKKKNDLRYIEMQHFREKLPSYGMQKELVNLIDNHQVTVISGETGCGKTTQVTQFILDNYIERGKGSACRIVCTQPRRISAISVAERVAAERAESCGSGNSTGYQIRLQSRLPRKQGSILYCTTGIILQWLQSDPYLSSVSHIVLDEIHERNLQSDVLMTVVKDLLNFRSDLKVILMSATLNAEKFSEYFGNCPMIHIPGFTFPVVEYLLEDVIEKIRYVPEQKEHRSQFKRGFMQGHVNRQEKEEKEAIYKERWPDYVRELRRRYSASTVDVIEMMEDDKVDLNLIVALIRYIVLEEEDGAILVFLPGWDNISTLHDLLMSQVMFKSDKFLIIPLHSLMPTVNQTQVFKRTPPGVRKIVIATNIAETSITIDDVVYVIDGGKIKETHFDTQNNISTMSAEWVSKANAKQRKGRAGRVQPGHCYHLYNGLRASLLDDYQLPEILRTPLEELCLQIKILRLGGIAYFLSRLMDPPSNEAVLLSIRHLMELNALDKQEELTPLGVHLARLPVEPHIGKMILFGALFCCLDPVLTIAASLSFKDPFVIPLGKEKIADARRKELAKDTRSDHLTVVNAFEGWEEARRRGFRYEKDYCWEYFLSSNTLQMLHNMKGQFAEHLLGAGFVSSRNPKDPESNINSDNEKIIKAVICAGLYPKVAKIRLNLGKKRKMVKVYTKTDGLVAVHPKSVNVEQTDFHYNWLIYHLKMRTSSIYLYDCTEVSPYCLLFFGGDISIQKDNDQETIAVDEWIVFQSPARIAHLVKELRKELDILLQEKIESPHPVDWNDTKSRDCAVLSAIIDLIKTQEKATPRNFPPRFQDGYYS
UniProt Q9BYI3: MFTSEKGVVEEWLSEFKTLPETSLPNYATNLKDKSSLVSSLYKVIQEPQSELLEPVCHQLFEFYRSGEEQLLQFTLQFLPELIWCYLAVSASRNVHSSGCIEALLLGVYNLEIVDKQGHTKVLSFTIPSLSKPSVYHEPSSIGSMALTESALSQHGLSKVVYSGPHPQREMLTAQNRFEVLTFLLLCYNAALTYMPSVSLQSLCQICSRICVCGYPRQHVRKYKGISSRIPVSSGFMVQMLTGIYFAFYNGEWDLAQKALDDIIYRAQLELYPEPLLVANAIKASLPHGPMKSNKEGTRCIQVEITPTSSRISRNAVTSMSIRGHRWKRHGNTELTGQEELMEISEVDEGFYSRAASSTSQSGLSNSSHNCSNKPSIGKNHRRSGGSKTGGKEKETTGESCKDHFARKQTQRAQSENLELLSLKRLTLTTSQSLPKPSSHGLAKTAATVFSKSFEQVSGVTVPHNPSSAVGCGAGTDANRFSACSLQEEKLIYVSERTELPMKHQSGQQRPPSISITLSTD
UniProt Q9BVL2: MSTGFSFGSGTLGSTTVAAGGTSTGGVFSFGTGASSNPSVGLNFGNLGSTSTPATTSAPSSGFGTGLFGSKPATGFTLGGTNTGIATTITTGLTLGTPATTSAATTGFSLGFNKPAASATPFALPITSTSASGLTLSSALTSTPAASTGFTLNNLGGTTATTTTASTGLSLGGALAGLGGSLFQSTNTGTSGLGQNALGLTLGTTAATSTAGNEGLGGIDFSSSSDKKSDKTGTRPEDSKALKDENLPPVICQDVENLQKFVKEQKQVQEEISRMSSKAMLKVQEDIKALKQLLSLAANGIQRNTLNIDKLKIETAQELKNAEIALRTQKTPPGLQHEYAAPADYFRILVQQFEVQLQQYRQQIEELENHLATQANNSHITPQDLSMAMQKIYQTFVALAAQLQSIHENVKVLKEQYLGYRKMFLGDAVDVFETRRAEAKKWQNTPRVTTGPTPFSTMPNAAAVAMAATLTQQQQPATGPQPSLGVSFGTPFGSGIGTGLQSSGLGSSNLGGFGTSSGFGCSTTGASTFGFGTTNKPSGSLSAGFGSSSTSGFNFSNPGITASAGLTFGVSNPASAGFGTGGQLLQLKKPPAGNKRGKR
UniProt Q9BWH6: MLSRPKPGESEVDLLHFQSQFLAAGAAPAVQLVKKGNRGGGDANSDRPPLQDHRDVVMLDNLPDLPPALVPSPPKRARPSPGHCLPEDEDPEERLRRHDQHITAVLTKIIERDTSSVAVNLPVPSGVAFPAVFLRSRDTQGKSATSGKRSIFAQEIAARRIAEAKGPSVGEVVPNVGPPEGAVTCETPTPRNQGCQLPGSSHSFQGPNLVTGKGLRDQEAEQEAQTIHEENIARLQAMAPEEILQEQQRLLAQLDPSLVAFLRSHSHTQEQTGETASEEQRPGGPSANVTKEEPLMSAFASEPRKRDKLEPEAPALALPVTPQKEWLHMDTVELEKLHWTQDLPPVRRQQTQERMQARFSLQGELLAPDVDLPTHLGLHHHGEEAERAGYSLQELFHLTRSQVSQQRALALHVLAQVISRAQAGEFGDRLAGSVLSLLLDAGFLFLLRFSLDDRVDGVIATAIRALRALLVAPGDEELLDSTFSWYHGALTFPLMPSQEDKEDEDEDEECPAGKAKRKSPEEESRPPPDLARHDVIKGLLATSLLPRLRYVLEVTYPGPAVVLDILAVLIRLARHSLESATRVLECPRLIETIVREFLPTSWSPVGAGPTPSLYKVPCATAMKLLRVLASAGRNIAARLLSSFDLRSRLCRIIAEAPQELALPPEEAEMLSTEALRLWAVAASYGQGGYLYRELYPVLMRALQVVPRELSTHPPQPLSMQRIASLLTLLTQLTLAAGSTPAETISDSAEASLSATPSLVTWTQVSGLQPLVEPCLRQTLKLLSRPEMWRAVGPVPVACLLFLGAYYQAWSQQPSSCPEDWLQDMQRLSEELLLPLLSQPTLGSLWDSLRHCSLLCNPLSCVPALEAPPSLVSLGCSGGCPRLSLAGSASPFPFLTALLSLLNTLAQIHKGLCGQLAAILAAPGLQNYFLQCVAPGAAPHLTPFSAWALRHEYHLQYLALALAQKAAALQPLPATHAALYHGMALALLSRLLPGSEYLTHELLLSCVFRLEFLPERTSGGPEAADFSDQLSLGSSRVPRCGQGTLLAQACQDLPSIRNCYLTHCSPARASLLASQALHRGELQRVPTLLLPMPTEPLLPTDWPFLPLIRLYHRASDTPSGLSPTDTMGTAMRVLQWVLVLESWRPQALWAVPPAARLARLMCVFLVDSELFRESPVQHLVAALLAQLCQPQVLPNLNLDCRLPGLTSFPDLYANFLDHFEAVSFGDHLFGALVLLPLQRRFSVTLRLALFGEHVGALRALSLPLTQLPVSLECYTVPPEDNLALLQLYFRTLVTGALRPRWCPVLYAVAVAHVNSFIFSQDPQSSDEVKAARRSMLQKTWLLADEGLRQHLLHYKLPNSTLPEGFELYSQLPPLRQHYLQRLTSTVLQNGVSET
UniProt Q9BTE3: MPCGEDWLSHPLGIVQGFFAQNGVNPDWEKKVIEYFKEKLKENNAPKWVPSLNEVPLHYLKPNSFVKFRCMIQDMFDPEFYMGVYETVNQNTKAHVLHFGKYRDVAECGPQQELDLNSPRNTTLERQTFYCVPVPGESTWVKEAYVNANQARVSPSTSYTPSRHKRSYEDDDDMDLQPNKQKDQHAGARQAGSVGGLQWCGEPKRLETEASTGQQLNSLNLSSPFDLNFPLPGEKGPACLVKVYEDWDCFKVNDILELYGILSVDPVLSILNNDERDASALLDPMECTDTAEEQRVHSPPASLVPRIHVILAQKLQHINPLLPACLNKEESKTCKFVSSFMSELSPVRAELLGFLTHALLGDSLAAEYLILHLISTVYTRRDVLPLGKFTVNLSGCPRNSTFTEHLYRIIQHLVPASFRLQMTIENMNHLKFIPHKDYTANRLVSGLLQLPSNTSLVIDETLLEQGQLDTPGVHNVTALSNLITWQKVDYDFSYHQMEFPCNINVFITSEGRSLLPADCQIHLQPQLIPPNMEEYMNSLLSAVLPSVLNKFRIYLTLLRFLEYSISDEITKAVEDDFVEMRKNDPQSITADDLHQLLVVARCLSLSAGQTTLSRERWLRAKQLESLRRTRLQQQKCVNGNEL
UniProt Q9H2M9: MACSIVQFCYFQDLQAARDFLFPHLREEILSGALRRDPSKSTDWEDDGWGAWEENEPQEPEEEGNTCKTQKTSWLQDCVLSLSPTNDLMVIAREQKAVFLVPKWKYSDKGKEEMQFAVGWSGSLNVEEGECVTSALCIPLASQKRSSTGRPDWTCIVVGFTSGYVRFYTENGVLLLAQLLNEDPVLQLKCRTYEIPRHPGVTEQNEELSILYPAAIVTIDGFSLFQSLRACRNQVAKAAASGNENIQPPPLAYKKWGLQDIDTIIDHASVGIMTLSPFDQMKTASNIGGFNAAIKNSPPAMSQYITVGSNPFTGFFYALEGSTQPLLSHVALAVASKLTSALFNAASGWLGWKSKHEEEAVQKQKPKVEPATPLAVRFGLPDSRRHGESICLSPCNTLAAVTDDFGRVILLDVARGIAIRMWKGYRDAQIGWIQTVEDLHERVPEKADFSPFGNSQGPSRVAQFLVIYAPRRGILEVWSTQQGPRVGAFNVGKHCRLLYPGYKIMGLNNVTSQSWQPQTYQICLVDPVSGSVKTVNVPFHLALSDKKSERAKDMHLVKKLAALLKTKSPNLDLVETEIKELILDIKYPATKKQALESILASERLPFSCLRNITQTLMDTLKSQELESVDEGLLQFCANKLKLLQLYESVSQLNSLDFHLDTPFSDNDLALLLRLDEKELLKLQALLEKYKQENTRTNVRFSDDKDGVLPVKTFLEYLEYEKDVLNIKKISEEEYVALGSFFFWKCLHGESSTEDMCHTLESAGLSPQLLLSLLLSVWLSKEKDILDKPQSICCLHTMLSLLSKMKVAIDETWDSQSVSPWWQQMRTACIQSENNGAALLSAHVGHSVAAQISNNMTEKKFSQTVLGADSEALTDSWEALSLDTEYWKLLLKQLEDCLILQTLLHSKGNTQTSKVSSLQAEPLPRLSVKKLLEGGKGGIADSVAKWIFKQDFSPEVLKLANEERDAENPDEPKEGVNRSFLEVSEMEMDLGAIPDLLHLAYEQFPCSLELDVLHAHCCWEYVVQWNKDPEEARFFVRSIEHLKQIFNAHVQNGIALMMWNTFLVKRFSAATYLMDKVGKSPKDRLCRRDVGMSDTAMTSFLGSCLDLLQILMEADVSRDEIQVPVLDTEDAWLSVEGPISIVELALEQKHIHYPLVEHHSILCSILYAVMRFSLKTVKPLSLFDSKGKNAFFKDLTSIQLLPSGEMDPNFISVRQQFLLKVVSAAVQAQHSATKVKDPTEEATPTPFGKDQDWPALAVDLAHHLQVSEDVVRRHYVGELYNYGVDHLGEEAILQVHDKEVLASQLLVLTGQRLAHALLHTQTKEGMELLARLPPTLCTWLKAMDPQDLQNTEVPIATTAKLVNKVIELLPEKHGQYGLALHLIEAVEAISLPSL
UniProt Q9BRF8, whole entry: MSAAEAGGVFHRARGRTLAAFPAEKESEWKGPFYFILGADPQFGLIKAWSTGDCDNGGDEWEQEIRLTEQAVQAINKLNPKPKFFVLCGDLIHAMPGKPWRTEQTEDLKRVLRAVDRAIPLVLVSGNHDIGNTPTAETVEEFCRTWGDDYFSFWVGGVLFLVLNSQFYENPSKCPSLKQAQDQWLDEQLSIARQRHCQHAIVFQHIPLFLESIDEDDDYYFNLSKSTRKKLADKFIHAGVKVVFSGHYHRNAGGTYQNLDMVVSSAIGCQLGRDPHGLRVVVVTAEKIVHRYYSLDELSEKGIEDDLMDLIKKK
UniProt Q9GZP4: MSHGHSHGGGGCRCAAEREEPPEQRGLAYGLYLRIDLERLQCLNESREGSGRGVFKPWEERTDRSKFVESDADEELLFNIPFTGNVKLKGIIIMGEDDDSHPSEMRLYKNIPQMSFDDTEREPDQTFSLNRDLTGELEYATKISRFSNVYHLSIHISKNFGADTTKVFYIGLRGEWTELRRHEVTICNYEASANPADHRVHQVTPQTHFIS
UniProt Q9H0C8: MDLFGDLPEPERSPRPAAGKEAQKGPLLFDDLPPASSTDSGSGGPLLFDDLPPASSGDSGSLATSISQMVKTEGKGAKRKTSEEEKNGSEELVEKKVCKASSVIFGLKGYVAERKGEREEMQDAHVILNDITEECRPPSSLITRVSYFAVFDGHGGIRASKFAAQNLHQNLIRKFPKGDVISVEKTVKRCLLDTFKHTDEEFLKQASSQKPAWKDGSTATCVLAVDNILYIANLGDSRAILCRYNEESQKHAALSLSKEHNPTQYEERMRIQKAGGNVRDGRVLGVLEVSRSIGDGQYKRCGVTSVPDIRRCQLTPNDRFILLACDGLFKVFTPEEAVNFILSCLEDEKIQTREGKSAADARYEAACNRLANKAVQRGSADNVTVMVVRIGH

Compound: COC(=O)C#Cc1ccccc1 [methyl 3-phenylpropiolate]
Test: log2 ratio of iodoacetamide-alkyne labeling of the cysteine site, DMSO over compound (competition); higher = stronger covalent engagement of the cysteine by the compound, active = 1 or more
Settings: 500 µM; treatment time 1 h; system: HEK293T cell lysate
Outline: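 Three replicates, each with duplicate channels, were prepared from HEK293T lysate (2 mg/mL) treated with vehicle or electrophile at 500 µM for 1 h at ambient temperature. Iodoacetamide alkyne was then applied for 1 h, and samples were clicked to sCIP-TMT reagents, pooled, trypsin-digested overnight at 37 °C, enriched on streptavidin, acid-eluted and analysed on Orbitrap Eclipse LC-MS/MS with FAIMS, with FragPipe quantification. The log2 competition ratio per cysteine is the mean control-channel divided by the mean compound-channel reporter intensity. Cysteines quantified in only one replicate were left out.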

## DHX36 C135 (UniProt Q9H2U1)
  log2 ratio of iodoacetamide-alkyne labeling: inactive: 0.652

## KIFC1 C663 (UniProt Q9BW19)
  log2 ratio of iodoacetamide-alkyne labeling: inactive: 0.589

## HNRNPUL1 C291 (UniProt Q9BUJ2)
  log2 ratio of iodoacetamide-alkyne labeling: inactive: 0.483

## FAM126A C300 (UniProt Q9BYI3)
  log2 ratio of iodoacetamide-alkyne labeling: inactive: 0.174

## GNB1L C109 (UniProt Q9BYB4)
  log2 ratio of iodoacetamide-alkyne labeling: inactive: 0.259

## UniProt Q9BVL2_C252
  log2 ratio of iodoacetamide-alkyne labeling: inactive: -0.134

## KLC2 C441 (UniProt Q9H0B6)
  log2 ratio of iodoacetamide-alkyne labeling: inactive: 0.624

## GNL3 C156 (UniProt Q9BVP2)
  log2 ratio of iodoacetamide-alkyne labeling: inactive: 0.0603

## EGLN1 C201 (UniProt Q9GZT9)
  log2 ratio of iodoacetamide-alkyne labeling: inactive: 0.094

## RPAP1 C185 (UniProt Q9BWH6)
  log2 ratio of iodoacetamide-alkyne labeling: inactive: 0.366

## UniProt Q9BTE3_C200
  log2 ratio of iodoacetamide-alkyne labeling: inactive: 0.528

## RAB3GAP2 C67 (UniProt Q9H2M9)
  log2 ratio of iodoacetamide-alkyne labeling: inactive: 0.306

## TNKS1BP1 C1443 (UniProt Q9C0C2)
  log2 ratio of iodoacetamide-alkyne labeling: inactive: 0.355

## UniProt Q9GZT3_C48
  log2 ratio of iodoacetamide-alkyne labeling: inactive: -0.0934

## CPPED1 C54 (UniProt Q9BRF8)
  log2 ratio of iodoacetamide-alkyne labeling: active: 1.01

## UniProt Q9GZP4_C14
  log2 ratio of iodoacetamide-alkyne labeling: inactive: 0.308

## MRPL4 C311 (UniProt Q9BYD3)
  log2 ratio of iodoacetamide-alkyne labeling: inactive: 0.0294

## XRN2 C159 (UniProt Q9H0D6)
  log2 ratio of iodoacetamide-alkyne labeling: inactive: 0.565

## TNKS1BP1 C232 (UniProt Q9C0C2)
  log2 ratio of iodoacetamide-alkyne labeling: inactive: 0.444

## UniProt Q9BTX1_C369
  log2 ratio of iodoacetamide-alkyne labeling: inactive: 0.121

## ILKAP C135 (UniProt Q9H0C8)
  log2 ratio of iodoacetamide-alkyne labeling: inactive: -0.165

## MAF1 C88 (UniProt Q9H063)
  log2 ratio of iodoacetamide-alkyne labeling: inactive: 0.737
